Data: the supplement of paper PMC10849652
This is one part of the list.

By UniProt entry, the sequences of proteins in these tests, tags left out. Where a name states a change or a piece, a line headed by the entry shows the natural chain unless it says otherwise.
UniProt Q9NRR8: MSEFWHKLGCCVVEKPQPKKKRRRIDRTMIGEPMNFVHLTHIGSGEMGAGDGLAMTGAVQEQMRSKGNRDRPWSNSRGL
UniProt Q96EP1: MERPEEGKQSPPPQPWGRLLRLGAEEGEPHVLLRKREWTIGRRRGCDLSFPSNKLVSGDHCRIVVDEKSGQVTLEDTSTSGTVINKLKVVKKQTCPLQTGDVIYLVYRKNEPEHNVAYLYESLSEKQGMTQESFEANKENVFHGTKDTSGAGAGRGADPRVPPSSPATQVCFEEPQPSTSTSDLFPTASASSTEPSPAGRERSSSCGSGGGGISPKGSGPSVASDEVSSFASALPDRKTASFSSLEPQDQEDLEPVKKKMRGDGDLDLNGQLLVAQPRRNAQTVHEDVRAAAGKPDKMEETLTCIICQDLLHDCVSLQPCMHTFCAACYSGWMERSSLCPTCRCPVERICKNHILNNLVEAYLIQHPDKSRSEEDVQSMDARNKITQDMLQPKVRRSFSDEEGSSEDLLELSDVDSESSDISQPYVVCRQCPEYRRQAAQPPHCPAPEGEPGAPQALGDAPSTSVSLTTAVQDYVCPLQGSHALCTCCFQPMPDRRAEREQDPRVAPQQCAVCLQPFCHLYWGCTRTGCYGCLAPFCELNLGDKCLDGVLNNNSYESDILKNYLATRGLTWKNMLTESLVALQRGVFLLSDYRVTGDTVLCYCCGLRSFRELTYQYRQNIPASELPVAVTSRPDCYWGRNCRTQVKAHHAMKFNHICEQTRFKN
UniProt Q9BSY4: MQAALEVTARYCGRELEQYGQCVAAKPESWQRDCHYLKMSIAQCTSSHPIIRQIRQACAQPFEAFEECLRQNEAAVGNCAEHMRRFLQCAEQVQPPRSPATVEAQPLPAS
UniProt P19022: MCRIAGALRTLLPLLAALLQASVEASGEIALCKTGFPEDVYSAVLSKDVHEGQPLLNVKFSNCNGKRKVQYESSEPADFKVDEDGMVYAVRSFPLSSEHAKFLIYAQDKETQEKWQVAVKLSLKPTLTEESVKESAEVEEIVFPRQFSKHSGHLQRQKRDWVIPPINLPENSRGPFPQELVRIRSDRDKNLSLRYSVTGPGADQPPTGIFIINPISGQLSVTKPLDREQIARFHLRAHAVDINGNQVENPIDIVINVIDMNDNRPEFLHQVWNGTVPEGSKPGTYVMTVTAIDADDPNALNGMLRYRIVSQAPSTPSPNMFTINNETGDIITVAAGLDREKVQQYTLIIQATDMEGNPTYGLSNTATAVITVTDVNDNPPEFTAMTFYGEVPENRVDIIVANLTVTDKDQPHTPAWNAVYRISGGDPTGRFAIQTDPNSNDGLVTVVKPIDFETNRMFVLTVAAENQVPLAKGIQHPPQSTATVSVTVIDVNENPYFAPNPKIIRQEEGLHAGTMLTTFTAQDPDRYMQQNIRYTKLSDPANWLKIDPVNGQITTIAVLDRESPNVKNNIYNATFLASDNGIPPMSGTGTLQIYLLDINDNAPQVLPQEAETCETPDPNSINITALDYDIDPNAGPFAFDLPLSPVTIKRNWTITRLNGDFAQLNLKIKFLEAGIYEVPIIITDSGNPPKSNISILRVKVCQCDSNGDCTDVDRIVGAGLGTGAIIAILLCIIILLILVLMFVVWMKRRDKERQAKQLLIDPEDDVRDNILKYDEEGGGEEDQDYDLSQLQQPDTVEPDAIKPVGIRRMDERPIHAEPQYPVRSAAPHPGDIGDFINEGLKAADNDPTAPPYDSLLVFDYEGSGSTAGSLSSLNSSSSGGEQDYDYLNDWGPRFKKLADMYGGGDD
UniProt Q9HC77: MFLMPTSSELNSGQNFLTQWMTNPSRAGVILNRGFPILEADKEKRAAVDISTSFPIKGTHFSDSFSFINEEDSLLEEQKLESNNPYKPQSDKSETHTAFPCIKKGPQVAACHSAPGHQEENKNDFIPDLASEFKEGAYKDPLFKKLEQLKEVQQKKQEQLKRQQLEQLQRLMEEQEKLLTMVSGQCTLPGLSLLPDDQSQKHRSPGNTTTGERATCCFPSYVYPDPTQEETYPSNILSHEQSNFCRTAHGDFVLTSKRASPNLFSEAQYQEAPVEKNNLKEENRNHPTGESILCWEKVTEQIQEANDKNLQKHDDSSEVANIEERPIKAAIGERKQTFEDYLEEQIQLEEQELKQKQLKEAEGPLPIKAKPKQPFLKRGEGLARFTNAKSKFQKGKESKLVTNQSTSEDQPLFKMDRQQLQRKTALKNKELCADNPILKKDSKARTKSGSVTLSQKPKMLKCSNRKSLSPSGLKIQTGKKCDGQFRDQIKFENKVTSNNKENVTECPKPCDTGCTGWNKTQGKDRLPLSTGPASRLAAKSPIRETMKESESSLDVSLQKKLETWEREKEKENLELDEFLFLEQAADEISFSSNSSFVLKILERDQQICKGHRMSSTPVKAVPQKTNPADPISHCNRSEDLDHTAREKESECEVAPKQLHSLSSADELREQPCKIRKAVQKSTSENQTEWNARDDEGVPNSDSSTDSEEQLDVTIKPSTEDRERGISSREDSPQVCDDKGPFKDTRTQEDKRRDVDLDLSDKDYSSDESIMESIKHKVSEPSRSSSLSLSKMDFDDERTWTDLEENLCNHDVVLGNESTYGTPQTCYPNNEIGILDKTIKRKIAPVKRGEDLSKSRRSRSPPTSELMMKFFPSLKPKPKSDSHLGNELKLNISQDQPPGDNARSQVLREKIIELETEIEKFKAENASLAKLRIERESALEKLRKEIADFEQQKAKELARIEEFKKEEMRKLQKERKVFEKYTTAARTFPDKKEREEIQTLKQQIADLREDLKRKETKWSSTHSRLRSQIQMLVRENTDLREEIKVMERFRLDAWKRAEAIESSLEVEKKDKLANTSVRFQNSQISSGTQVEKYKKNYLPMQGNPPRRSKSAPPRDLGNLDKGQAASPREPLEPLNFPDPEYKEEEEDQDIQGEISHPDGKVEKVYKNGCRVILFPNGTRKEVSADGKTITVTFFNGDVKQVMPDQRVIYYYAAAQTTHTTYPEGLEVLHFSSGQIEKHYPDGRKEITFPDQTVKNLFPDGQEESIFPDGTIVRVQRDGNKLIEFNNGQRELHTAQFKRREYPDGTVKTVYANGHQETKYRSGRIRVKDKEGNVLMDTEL
UniProt Q49AH0, whole entry, looked up: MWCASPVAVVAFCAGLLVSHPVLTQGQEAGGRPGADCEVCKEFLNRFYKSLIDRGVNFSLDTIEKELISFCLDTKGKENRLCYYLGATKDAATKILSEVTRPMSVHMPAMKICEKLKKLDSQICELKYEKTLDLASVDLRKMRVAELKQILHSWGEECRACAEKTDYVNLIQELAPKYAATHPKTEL
UniProt Q71F23: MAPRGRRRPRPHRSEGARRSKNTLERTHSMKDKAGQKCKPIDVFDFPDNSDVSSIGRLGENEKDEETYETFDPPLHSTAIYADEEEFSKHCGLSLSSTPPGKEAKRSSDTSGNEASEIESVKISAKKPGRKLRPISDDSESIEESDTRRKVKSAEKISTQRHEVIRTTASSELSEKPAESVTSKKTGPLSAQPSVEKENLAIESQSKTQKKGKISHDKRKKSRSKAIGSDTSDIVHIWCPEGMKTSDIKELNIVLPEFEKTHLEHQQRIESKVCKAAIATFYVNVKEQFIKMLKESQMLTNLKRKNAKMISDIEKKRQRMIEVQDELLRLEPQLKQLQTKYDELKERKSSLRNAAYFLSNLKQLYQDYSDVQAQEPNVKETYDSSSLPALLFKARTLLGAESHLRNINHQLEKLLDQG
UniProt P24386: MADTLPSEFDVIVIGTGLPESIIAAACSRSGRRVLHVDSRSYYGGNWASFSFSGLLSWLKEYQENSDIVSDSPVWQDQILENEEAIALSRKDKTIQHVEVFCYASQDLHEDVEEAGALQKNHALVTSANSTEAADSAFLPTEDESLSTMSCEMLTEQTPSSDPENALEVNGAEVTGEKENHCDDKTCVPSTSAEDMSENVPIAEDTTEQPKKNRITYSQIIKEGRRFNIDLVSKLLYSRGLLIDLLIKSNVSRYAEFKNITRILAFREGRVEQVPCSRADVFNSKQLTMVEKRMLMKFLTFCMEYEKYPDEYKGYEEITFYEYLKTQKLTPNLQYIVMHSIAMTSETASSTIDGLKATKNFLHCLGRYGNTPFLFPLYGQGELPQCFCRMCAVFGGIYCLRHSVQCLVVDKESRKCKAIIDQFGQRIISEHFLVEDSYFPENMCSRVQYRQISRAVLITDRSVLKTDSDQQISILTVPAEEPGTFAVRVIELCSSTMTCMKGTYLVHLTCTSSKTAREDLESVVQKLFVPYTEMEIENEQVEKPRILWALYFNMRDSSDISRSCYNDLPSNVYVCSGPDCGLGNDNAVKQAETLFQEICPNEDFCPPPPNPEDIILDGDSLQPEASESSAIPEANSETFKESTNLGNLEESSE
UniProt O94986: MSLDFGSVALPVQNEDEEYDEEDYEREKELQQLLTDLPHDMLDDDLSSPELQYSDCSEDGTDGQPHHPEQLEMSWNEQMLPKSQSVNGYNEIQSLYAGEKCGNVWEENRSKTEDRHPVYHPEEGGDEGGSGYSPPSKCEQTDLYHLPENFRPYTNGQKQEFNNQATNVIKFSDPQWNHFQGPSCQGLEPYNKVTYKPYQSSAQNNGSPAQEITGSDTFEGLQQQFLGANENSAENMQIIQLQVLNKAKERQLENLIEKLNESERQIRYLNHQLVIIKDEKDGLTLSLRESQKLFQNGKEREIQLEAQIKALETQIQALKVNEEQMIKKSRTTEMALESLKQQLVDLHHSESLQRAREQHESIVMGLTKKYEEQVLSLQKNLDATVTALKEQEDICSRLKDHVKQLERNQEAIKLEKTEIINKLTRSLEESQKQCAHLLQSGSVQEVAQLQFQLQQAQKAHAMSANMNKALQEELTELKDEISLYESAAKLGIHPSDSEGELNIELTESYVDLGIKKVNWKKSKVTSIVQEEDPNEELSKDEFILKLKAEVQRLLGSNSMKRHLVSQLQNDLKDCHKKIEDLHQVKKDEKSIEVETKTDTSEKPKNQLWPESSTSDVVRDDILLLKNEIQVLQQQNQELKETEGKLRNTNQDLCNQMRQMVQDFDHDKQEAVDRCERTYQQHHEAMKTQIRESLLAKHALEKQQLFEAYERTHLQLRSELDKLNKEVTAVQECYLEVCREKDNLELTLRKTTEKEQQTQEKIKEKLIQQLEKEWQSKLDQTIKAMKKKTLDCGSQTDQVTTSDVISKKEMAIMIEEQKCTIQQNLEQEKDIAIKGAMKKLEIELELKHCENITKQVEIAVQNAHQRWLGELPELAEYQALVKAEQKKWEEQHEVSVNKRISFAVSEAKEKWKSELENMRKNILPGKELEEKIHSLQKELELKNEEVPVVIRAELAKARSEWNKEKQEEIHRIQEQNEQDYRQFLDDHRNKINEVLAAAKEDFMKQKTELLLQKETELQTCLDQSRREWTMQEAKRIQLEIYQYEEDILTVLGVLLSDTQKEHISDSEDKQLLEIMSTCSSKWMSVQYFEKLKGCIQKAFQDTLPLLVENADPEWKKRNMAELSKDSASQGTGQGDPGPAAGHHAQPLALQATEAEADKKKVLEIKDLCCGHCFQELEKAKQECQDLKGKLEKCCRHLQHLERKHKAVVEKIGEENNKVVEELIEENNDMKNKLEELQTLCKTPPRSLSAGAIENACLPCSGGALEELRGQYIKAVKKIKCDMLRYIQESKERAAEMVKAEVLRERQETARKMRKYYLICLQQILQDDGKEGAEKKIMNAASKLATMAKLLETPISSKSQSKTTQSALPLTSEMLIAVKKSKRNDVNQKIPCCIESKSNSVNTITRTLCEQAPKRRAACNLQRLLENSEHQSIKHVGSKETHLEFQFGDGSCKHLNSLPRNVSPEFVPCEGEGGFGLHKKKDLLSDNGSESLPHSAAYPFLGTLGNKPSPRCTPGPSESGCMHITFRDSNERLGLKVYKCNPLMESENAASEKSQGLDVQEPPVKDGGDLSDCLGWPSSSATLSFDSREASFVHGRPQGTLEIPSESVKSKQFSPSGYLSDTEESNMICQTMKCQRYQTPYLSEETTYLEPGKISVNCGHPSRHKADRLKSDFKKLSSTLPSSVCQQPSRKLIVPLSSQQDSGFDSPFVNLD
UniProt P17676: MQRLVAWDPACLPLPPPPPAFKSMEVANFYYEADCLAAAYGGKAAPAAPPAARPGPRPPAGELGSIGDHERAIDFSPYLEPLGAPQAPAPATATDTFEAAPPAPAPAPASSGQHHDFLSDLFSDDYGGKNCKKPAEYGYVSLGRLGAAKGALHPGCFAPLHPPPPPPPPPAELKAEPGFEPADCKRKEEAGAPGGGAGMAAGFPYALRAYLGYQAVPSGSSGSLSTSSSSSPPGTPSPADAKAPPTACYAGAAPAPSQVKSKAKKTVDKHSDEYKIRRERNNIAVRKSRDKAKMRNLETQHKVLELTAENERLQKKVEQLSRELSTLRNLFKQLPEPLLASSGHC
UniProt Q9NSP4: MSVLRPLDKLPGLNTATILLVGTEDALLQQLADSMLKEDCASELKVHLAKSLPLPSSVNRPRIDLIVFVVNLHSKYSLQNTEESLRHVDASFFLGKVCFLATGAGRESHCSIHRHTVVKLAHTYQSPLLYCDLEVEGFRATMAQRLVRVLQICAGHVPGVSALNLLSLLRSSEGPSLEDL

What was measured:
Assay in all cases: log2 fold change, soluble protein after heating vs DMSO (PISA); higher = thermal stabilisation; K562 cells, 10 uM, 30 min; active = over 0.2 and 3.5 SD of the protein, either way, in both replicates (recomputed)
[1] = compound: COC1=CC=C(C=C1)CN2C=CC3=C2C=C(C=C3)C(=O)NO
Procedure, shortened: (§1)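 Quantification of soluble protein used TMTpro 16plex LC-MS/MS, with channel sums equalised. Samples were the supernatant after 21,000xg for 90 min of pooled aliquots from K562 cells (2×10^6 cells/mL) treated with 10 μM compound for 30 min, heated for 3 min over 48°C-58°C, and extracted in PBS with 0.5% NP-40 at 4°C. Values, from duplicates, describe thermal stability against control samples on a log2 fold-change scale.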

[2] = compound: CON(C)C(=O)N1N=C(c2cc(F)ccc2F)S[C@@]1(CCCN)c1ccccc1 [filanesib]
Procedure, shortened: as §1

[3] = compound: CO[C@H]1C[C@@H]2CC[C@@H](C)[C@@](O)(O2)C(=O)C(=O)N2CCCC[C@H]2C(=O)O[C@H]([C@H](C)C[C@@H]2CC[C@H](n3cnnn3)[C@H](OC)C2)CC(=O)[C@H](C)/C=C(\C)[C@@H](O)[C@@H](OC)C(=O)[C@H](C)C[C@H](C)/C=C/C=C/C=C/1C [zotarolimus]
Procedure, shortened: as §1

[4] = compound: COc1cc(C(=O)O)ccc1NC(=O)[C@@H]1N[C@@H](CC(C)(C)C)[C@](C#N)(c2ccc(Cl)cc2F)[C@H]1c1cccc(Cl)c1F [idasanutlin]
Procedure, shortened: as §1

[5] = compound: COc1cc(Nc2ncc3c(n2)-c2ccc(Cl)cc2C(c2c(F)cccc2OC)=NC3)ccc1C(=O)O [alisertib]
Procedure, shortened: as §1

[6] = compound: COc1cc2nc(-c3cc(F)ccc3O)nc(N[C@@H]3CNC[C@H]3C(C)(C)O)c2cc1OC
Procedure, shortened: as §1

[7] = compound: COc1cc2ncnc(Nc3ccc(F)c(Cl)c3)c2cc1OCCCN1CCOCC1 [gefitinib]
Procedure, shortened: as §1

[8] = compound: COc1cccc2cc(-c3nc([C@H]4CC[C@H](C(=O)O)CC4)n4ncnc(N)c34)[nH]c12
Procedure, shortened: as §1

[9] = compound: CS(=O)(=O)CCNCc1ccc(-c2ccc3ncnc(Nc4ccc(OCc5cccc(F)c5)c(Cl)c4)c3c2)o1 [lapatinib]
Procedure, shortened: as §1

[10] = compound: CS(=O)(=O)c1ccc(-c2cnc(N)c(C(=O)Nc3ccccc3)n2)cc1
Procedure, shortened: as §1

[11] = compound: C[C@@H](Oc1cc(-c2cnn(C3CCNCC3)c2)cnc1N)c1c(Cl)ccc(F)c1Cl [crizotinib]
Procedure, shortened: as §1

[12] = compound: C[C@@H]1COCCN1C2=NC(=NC(=C2)C3(CC3)S(=O)(=O)C)C4=C5C=CNC5=CC=C4
Procedure, shortened: as §1

[13] = compound: C[C@H](C1=CC=C(C=C1)C(=O)NC2=C3C=CNC3=NC=C2)N
Procedure, shortened: as §1

[14] = compound: Cc1cc(SCc2sc(-c3ccc(C(F)(F)F)cc3)nc2C)ccc1OCC(=O)O
Procedure, shortened: as §1

[15] = compound: Cc1ccc(-n2nc(C(C)(C)C)cc2NC(=O)Nc2ccc(OCCN3CCOCC3)c3ccccc23)cc1 [doramapimod]
Procedure, shortened: as §1

[16] = compound: Cc1ccc(C(=O)N(CCCN)[C@@H](c2nc3cc(Cl)ccc3c(=O)n2Cc2ccccc2)C(C)C)cc1 [ispinesib]
Procedure, shortened: as §1

[17] = compound: Cc1cc(Nc2cc(N3CCN(C)CC3)nc(Sc3ccc(NC(=O)C4CC4)cc3)n2)n[nH]1 [tozasertib]
Procedure, shortened: as §1

[18] = compound: CS(=O)(=O)N1CCN(Cc2cc3nc(-c4cccc5[nH]ncc45)nc(N4CCOCC4)c3s2)CC1 [pictilisib]
Procedure, shortened: as §1

[19] = compound: C[C@H](Nc1ncnc2nc[nH]c12)c1cc2cccc(Cl)c2c(=O)n1-c1ccccc1 [duvelisib]
Procedure, shortened: as §1

[20] = compound: Cc1cc(Nc2cc(CN3CCOCC3)c3nc(C)c(Cc4ccc(Cl)cc4F)n3n2)n[nH]1 [gandotinib]
Procedure, shortened: as §1

Measured: log2 fold change

CDC42SE1 (UniProt Q9NRR8)
inactive: [1] -0.011 | [2] -0.049 | [3] 0 | [4] -0.093 | [5] 0.003 | [6] 0.036 | [7] -0.025 | [8] -0.168 | [9] -0.088 | [10] 0 | [11] -0.099 | [12] 0.16 | [13] -0.031 | [14] -0.04 | [15] -0.06 | [16] -0.341

CHFR (UniProt Q96EP1)
inactive: [1] 0.014 | [5] 0.26 | [6] 0.084 | [8] -0.271 | [9] 0.326 | [11] 0.056 | [12] 0.22 | [17] -0.004 | [15] -0.119

CHCHD7 isoform 4 (UniProt Q9BUK0)
inactive: [1] -0.009 | [2] 0.028 | [3] -0.024 | [4] 0.017 | [5] 0.03 | [6] -0.009 | [7] -0.14 | [8] 0.043 | [9] -0.208 | [18] 0.102 | [10] -0.05 | [11] -0.025 | [13] -0.171 | [19] 0.042 | [20] -0.007 | [17] -0.038 | [14] 0.038 | [15] -0.05 | [16] 0.019

CEP170B (UniProt Q9Y4F5)
inactive: [1] 0.009 | [2] 0.188 | [4] 0.164 | [5] -0.119 | [8] 0.003 | [18] 0.171 | [10] 0.009 | [11] -0.199 | [12] -0.12 | [19] -0.084 | [20] 0.263 | [14] -0.021 | [15] 0.268 | [16] -0.016

CHCHD5 (UniProt Q9BSY4)
inactive: [1] -0.079 | [2] -0.032 | [3] -0.243 | [5] -0.127 | [6] 0.019 | [7] 0.089 | [8] 0.061 | [9] 0.062 | [10] -0.082 | [11] -0.084 | [13] 0.093 | [15] 0.145 | [16] 0.172

CDH2 (UniProt P19022)
inactive: [1] -0.128 | [6] -0.236 | [9] -0.254 | [18] -1.28 | [11] 0.146 | [20] 0.047 | [15] 0.001

CENPJ (UniProt Q9HC77)
inactive: [1] -0.317 | [2] 0.163 | [4] 0.176 | [6] 0.067 | [9] -0.137 | [10] -0.03 | [11] 0.033 | [12] 0.025 | [17] -0.132 | [15] 0.275 | [16] -0.088

CDK16 isoform 2 (UniProt Q00536)
active: [20] 0.436
inactive: [1] 0.029 | [2] 0.021 | [3] -0.028 | [4] -0.036 | [5] 0.02 | [6] 0.252 | [7] -0.086 | [8] 0.037 | [9] 0.002 | [10] 0.03 | [11] -0.036 | [12] 0.06 | [13] -0.07 | [14] 0.096 | [15] -0.022 | [16] -0.046

CEBPZOS (UniProt A8MTT3)
inactive: [1] 0.111 | [4] -0.021 | [5] -0.014 | [6] -0.085 | [7] 0.004 | [8] 0.098 | [9] -0.037 | [18] -0.045 | [20] -0.189 | [14] -0.013 | [15] 0.066 | [16] 0.016
active: [11] 0.26

CDNF (UniProt Q49AH0)
inactive: [1] -0.111 | [11] 0.099 | [19] 0.149 | [14] -0.241 | [15] 0.069

Pulled one by one from the list above (2):
CEBPZOS (UniProt A8MTT3)
inactive: [1] 0.111 | [4] -0.021 | [5] -0.014 | [6] -0.085 | [7] 0.004 | [8] 0.098 | [9] -0.037 | [18] -0.045 | [20] -0.189 | [14] -0.013 | [15] 0.066 | [16] 0.016
active: [11] 0.26

CDH2 (UniProt P19022)
inactive: [1] -0.128 | [6] -0.236 | [9] -0.254 | [18] -1.28 | [11] 0.146 | [20] 0.047 | [15] 0.001

More records

CENPU (UniProt Q71F23)
inactive: [1] -0.049 | [2] 0.45 | [4] 0.457 | [6] 0.116 | [9] 0.044 | [10] -0.101 | [11] -0.041 | [12] -0.425 | [19] -0.17 | [17] -0.158 | [14] -0.114 | [15] 0.245

CHM (UniProt P24386)
inactive: [1] 0.024 | [2] -0.015 | [3] 0.008 | [4] 0.356 | [5] -0.01 | [6] 0.055 | [8] -0.004 | [9] -0.049 | [18] 0.075 | [10] -0.119 | [11] 0.033 | [12] -0.002 | [13] -0.047 | [19] 0.063 | [20] -0.091 | [17] -0.001 | [14] 0.055 | [15] 0.03 | [16] 0.078

CENPC (UniProt Q03188)
inactive: [1] -0.15 | [3] 0.016 | [4] 0.199 | [6] 0.058 | [7] -0.1 | [9] 0.103 | [11] -0.031 | [12] -0.115 | [13] -0.008 | [19] -0.12 | [14] -0.091 | [15] 0.178

CFAP36 isoform 2 (UniProt Q96G28)
active: [13] -0.394 | [17] 0.587
inactive: [1] 0.12 | [2] 0.055 | [3] 0.162 | [4] -0.02 | [5] -0.049 | [6] 0.001 | [8] 0.019 | [9] 0.082 | [18] 0.241 | [10] -0.013 | [11] -0.201 | [12] 0.078 | [20] -0.048 | [14] -0.007 | [15] 0.096 | [16] -0.053

CEP152 (UniProt O94986)
inactive: [1] 0.402 | [2] 0.334 | [5] 0.021 | [6] 0.196 | [7] 0 | [8] -0.028 | [9] -0.103 | [18] 0.036 | [10] 0.06 | [11] -0.125 | [20] 0.105 | [17] -0.152 | [15] 0.051 | [16] -0.3

CEBPB (UniProt P17676)
inactive: [1] -0.135 | [3] -0.001 | [4] -0.118 | [5] -0.366 | [6] -0.007 | [7] -0.116 | [8] -0.057 | [9] 0.066 | [18] 0 | [11] 0.009 | [12] -0.157 | [13] 0.069 | [19] -0.089 | [20] -0.204 | [17] 0.128 | [14] -0.07 | [15] 0.005 | [16] -0.314

CDC5L (UniProt Q99459)
inactive: [1] 0.067 | [2] 0.007 | [3] 0.184 | [4] 0.419 | [5] 0.017 | [8] -0.08 | [18] -0.295 | [10] 0.05 | [11] -0.065 | [13] 0.39 | [19] -0.062 | [20] 0.079 | [17] 0.115 | [14] -0.016 | [15] 0.152 | [16] -0.272

CENPM (UniProt Q9NSP4)
inactive: [19] 0.214 | [14] 0.116

CERS6 isoform 2 (UniProt Q6ZMG9)
inactive: [2] -0.028 | [3] -0.049 | [4] 0.123 | [5] -0.144 | [6] -0.063 | [7] 0.006 | [8] 0.081 | [9] 0.012 | [18] -0.103 | [10] -0.051 | [12] 0.045 | [13] -0.24 | [19] 0 | [20] -0.011 | [17] -0.029 | [14] 0.048
